Measured values reported in US20120082679A1 (Merck Sharp & Dohme, published 2012).
Results are given in words; binding and its absence hold for the method and conditions named. Some results given as binding are weak or reduced against the parent protein; the word gives no strength.

By UniProt entry, the sequences of proteins in these tests, tags left out. Residues count along the entry.
UniProt Q8NBP7, residues 31-692: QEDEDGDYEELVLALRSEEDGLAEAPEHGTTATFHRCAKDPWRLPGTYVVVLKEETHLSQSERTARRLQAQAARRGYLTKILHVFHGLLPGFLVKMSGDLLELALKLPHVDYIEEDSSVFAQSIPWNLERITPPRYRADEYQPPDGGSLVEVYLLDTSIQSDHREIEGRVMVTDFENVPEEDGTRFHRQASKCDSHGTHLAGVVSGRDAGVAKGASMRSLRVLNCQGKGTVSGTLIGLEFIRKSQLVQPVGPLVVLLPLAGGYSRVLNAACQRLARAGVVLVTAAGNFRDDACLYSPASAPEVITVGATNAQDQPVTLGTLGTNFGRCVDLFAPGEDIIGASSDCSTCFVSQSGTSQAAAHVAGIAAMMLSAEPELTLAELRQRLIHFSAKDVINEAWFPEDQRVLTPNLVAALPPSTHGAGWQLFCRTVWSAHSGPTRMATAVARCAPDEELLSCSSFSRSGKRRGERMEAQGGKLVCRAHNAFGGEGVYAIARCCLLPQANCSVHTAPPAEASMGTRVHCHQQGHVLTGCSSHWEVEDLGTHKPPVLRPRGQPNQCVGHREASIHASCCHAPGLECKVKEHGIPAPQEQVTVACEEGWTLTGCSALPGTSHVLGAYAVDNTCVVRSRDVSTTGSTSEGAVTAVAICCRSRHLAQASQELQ

Target: recombinant human PCSK9, V5-, His-tagged (human, UniProt Q8NBP7 31-692, limits assumed)
Assay: ELISA on immobilized V5-, His-tagged PCSK9

| Binder | binding |
| --- | --- |
| 1CX1G08 (Fab, V domains shown, also called 1CX1G08 Fab) VH: QVQLVESGGGLVQPGGSLRLSCAASGFTFSDYWVSWVRQAPGKGLEWVSFISYDGSSTYYADSVKGRFTISRDNSKNTLYLQMNSLRAEDTAVYYCARTYFEGVDVWGQGTLVTVSS VL: DIELTQPPSVSVAPGQTARISCSGDNIGTYYVHWYQQKPGQAPVLVIYDDSNRPSGIPERFSGSNSGNTATLTISGTQAEDEADYYCGTWDNTSFNLVFGGGTKLTVLG | binds |
| 3BX5C01 (Fab, V domains shown, also called 3BX5C01 Fab) VH: QVQLVQSGAEVKKPGESLKISCKGSGYSFTSYGISWVRQMPGKGLEWMGMIDPSDSFTTYSPSFQGQVTISADKSISTAYLQWSSLKASDTAMYYCARGYYFTYALQPMDHWGQGTLVTVSS VL: DIELTQPPSVSVAPGQTARISCSGDNLRDYIVHWYQQKPGQAPVLVIYDDSNRPSGIPERFSGSNSGNTATLTISGTQAEDEADYYCGFDNGGDIDVFGGGTKLTVLG | binds |
| 3CX2A06 (Fab, V domains shown, No SPR values are printed for this Fab; also called 3CX2A06 Fab) VH: QVQLVQSGAEVKKPGESLKISCKGSGYSFSNFWIAWVRQMPGKGLEWMGIIDPSDSWTRYSPSFQGQVTISADKSISTAYLQWSSLKASDTAMYYCARGDGQDFDNWGQGTLVTVSS VL: DIQMTQSPSSLSASVGDRVTITCRASQNINSYLNWYQQKPGKAPKLLIYAASSLQSGVPSRFSGSGSGTDFTLTISSLQPEDFAVYYCLQNYDLPNTFGQGTKVEIKR | binds |
| 3CX3D02 (Fab, V domains shown, also called 3CX3D02 Fab) VH: QVQLVQSGAEVKKPGESLKISCKGSGYSFTNSWIGWVRQMPGKGLEWMGIIYPSDSYTIYSPSFQGQVTISADKSISTAYLQWSSLKASDTAMYYCARGGGYYYALMDVWAQGTLVTVSS VL: DIQMTQSPSSLSASVGDRVTITCRASQTISTWLNWYQQKPGKAPKLLIYAASSLQSGVPSRFSGSGSGTDFTLTISSLQPEDFATYYCLQDSSLPLTFGQGTKVEIKR | binds |
| 3CX4B08 (Fab, V domains shown, also called 3CX4B08 Fab) VH: QVQLVESGGGLVQPGGSLRLSCAASGFTFSNYTMNWVRQAPGKGLEWVSFISSSSSETYYADSVKGRFTISRDNSKNTLYLQMNSLRAEDTAVYYCARGYGDMVDLWGQGTLVTVSS VL: DIELTQPPSVSVAPGQTARISCSGDSIPTYYVAWYQQKPGQAPVLVIYSDTDRPSGIPERFSGSNSGNTATLTISGTQAEDEADYYCQSFDNHGYHVFGGGTKLTVLG | binds |
